Laboratory results: the supplement of paper PMC4604168 (melanoma cell lines)
The other results are listed elsewhere or left out. Many values rest on one well or one pass, so single values are uncertain.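 The apoptosis fraction was the count of cleaved-PARP antibody-stained nuclei relative to all DNA-stained nuclei, imaged in 1,536-well plates. Screening doses were set so most cells survived, and baseline and induced cleaved-PARP levels vary greatly across cell lines.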

Legend:
Assay in all cases: cleaved PARP positive nuclei fraction relative to DMSO control; melanoma cells; higher = more apoptosis
Conditions in all cases: library dose: low library concentration; 72 h
[1] = tested on: 501Mel
[2] = tested on: A101D
[3] = tested on: A2058
[4] = tested on: A375
[5] = tested on: C32
[6] = tested on: CBRC008 (line from a melanoma biopsy)
[7] = tested on: CBRC013 (line from a melanoma biopsy)
[8] = tested on: CBRC014 (line from a melanoma biopsy)
[9] = tested on: CBRC016 (line from a melanoma biopsy)
[10] = tested on: CBRC017 (line from a melanoma biopsy)
[11] = tested on: COLO792
[12] = tested on: COLO800
[13] = tested on: COLO829
[14] = tested on: G361
[15] = tested on: IPC-298
[16] = tested on: IST-MEL1
[17] = tested on: LB2518-MEL
[18] = tested on: LOXIMVI
[19] = tested on: MEL-HO

CS(=O)(=O)c1ccc(C(=O)Nc2ccc(Cl)c(-c3ccccn3)c2)c(Cl)c1 [vismodegib] + C[C@@H]1CCN(C(=O)CC#N)C[C@@H]1N(C)c1ncnc2[nH]ccc12 [CP690550] (first compound 1 µM, partner dose 1 µM)
cleaved PARP positive nuclei fraction [1]: 84.2%
cleaved PARP positive nuclei fraction [2]: 87.1%
cleaved PARP positive nuclei fraction [3]: 63.8%
cleaved PARP positive nuclei fraction [4]: 45.9%
cleaved PARP positive nuclei fraction [5]: 126%
cleaved PARP positive nuclei fraction [6]: 69%
cleaved PARP positive nuclei fraction [7]: 121%
cleaved PARP positive nuclei fraction [8]: 83.5%
cleaved PARP positive nuclei fraction [9]: 164%
cleaved PARP positive nuclei fraction [10]: 96.3%
cleaved PARP positive nuclei fraction [11]: 32.4%
cleaved PARP positive nuclei fraction [12]: 99.8%
cleaved PARP positive nuclei fraction [13]: 150%
cleaved PARP positive nuclei fraction [14]: 86.3%
cleaved PARP positive nuclei fraction [15]: 44.4%
cleaved PARP positive nuclei fraction [16]: 228%
cleaved PARP positive nuclei fraction [17]: 88.6%
cleaved PARP positive nuclei fraction [18]: 197%
cleaved PARP positive nuclei fraction [19]: 64.2%

Cn1cnc2c(F)c(Nc3ccc(Br)cc3Cl)c(C(=O)NOCCO)cc21 [selumetinib] + COc1cc2c(Oc3ccc4[nH]c(C)cc4c3F)ncnc2cc1OCCCN1CCCC1 [cediranib] (first compound 0.015 µM, partner dose 0.4 µM)
cleaved PARP positive nuclei fraction [1]: 212%
cleaved PARP positive nuclei fraction [2]: 184%
cleaved PARP positive nuclei fraction [3]: 51%
cleaved PARP positive nuclei fraction [4]: 142%
cleaved PARP positive nuclei fraction [5]: 88.7%
cleaved PARP positive nuclei fraction [6]: 49.5%
cleaved PARP positive nuclei fraction [7]: 159%
cleaved PARP positive nuclei fraction [8]: 80%
cleaved PARP positive nuclei fraction [9]: 117%
cleaved PARP positive nuclei fraction [10]: 99.3%
cleaved PARP positive nuclei fraction [11]: 153%
cleaved PARP positive nuclei fraction [12]: 59.3%
cleaved PARP positive nuclei fraction [13]: 59%
cleaved PARP positive nuclei fraction [14]: 64.8%
cleaved PARP positive nuclei fraction [15]: 68.1%
cleaved PARP positive nuclei fraction [16]: 347%
cleaved PARP positive nuclei fraction [17]: 427%
cleaved PARP positive nuclei fraction [18]: 102%
cleaved PARP positive nuclei fraction [19]: 66%

CCCCCCCCc1ccc(CCC(N)(CO)CO)cc1 [fingolimod] + NCC(=O)Nc1ccc(-n2nc(C(F)(F)F)cc2-c2ccc3c(ccc4ccccc43)c2)cc1 [OSU03012] (first compound 2 µM, partner dose 1 µM)
cleaved PARP positive nuclei fraction [1]: 292%
cleaved PARP positive nuclei fraction [2]: 60.5%
cleaved PARP positive nuclei fraction [3]: 141%
cleaved PARP positive nuclei fraction [4]: 10300%
cleaved PARP positive nuclei fraction [5]: 137%
cleaved PARP positive nuclei fraction [6]: 181%
cleaved PARP positive nuclei fraction [7]: 245%
cleaved PARP positive nuclei fraction [8]: 164%
cleaved PARP positive nuclei fraction [9]: 104%
cleaved PARP positive nuclei fraction [10]: 103%
cleaved PARP positive nuclei fraction [11]: 97%
cleaved PARP positive nuclei fraction [12]: 265%
cleaved PARP positive nuclei fraction [13]: 34%
cleaved PARP positive nuclei fraction [14]: 94.4%
cleaved PARP positive nuclei fraction [15]: 62.8%
cleaved PARP positive nuclei fraction [16]: 296%
cleaved PARP positive nuclei fraction [17]: 45.2%
cleaved PARP positive nuclei fraction [18]: 30.6%
cleaved PARP positive nuclei fraction [19]: 53%

CC(=O)O[C@@]12CO[C@@H]1C[C@H](O)[C@@]1(C)C(=O)[C@H](O)C3=C(C)[C@@H](OC(=O)[C@H](O)[C@@H](NC(=O)OC(C)(C)C)c4ccccc4)C[C@@](O)([C@@H](OC(=O)c4ccccc4)[C@H]21)C3(C)C [Docetaxel] + CN(C)S(=O)(=O)c1ccc2c(c1)/C(=C/c1cc3c([nH]1)CCCC3)C(=O)N2 [SU6656] (first compound 0.0001 µM, partner dose 0.4 µM)
cleaved PARP positive nuclei fraction [1]: 108%
cleaved PARP positive nuclei fraction [2]: 92.4%
cleaved PARP positive nuclei fraction [3]: 8880%
cleaved PARP positive nuclei fraction [4]: 14800%
cleaved PARP positive nuclei fraction [5]: 543%
cleaved PARP positive nuclei fraction [6]: 222%
cleaved PARP positive nuclei fraction [7]: 78.4%
cleaved PARP positive nuclei fraction [8]: 125%
cleaved PARP positive nuclei fraction [9]: 721%
cleaved PARP positive nuclei fraction [10]: 148%
cleaved PARP positive nuclei fraction [11]: 505%
cleaved PARP positive nuclei fraction [12]: 90.2%
cleaved PARP positive nuclei fraction [13]: 407%
cleaved PARP positive nuclei fraction [14]: 724%
cleaved PARP positive nuclei fraction [15]: 149%
cleaved PARP positive nuclei fraction [16]: 267%
cleaved PARP positive nuclei fraction [17]: 159%
cleaved PARP positive nuclei fraction [18]: 96.9%
cleaved PARP positive nuclei fraction [19]: 121%

CN(c1ncccc1CNc1nc(Nc2ccc3c(c2)CC(=O)N3)ncc1C(F)(F)F)S(C)(=O)=O + Cc1ccc(NC(=O)c2cccc(N(C)C)c2)cc1NC(=O)c1ccc(O)cc1 [ZM336372] (first compound 0.08 µM, partner dose 2 µM)
cleaved PARP positive nuclei fraction [1]: 43.4%
cleaved PARP positive nuclei fraction [2]: 48.8%
cleaved PARP positive nuclei fraction [3]: 121%
cleaved PARP positive nuclei fraction [4]: 71.7%
cleaved PARP positive nuclei fraction [5]: 456%
cleaved PARP positive nuclei fraction [6]: 57.8%
cleaved PARP positive nuclei fraction [7]: 77%
cleaved PARP positive nuclei fraction [8]: 104%
cleaved PARP positive nuclei fraction [9]: 62%
cleaved PARP positive nuclei fraction [10]: 74%
cleaved PARP positive nuclei fraction [11]: 130%
cleaved PARP positive nuclei fraction [12]: 93.8%
cleaved PARP positive nuclei fraction [13]: 148%
cleaved PARP positive nuclei fraction [14]: 134%
cleaved PARP positive nuclei fraction [15]: 143%
cleaved PARP positive nuclei fraction [16]: 136%
cleaved PARP positive nuclei fraction [17]: 93.7%
cleaved PARP positive nuclei fraction [18]: 55.8%
cleaved PARP positive nuclei fraction [19]: 81.6%

C[C@@H](N)c1ccc(C(=O)Nc2ccnc3[nH]ccc23)cc1 + NCC(=O)Nc1ccc(-n2nc(C(F)(F)F)cc2-c2ccc3c(ccc4ccccc43)c2)cc1 [OSU03012] (first compound 0.4 µM, partner dose 1 µM)
cleaved PARP positive nuclei fraction [1]: 409%
cleaved PARP positive nuclei fraction [2]: 77.8%
cleaved PARP positive nuclei fraction [3]: 140%
cleaved PARP positive nuclei fraction [4]: 14400%
cleaved PARP positive nuclei fraction [5]: 91.4%
cleaved PARP positive nuclei fraction [6]: 38.6%
cleaved PARP positive nuclei fraction [7]: 136%
cleaved PARP positive nuclei fraction [8]: 123%
cleaved PARP positive nuclei fraction [9]: 131%
cleaved PARP positive nuclei fraction [10]: 84.9%
cleaved PARP positive nuclei fraction [11]: 224%
cleaved PARP positive nuclei fraction [12]: 126%
cleaved PARP positive nuclei fraction [13]: 110%
cleaved PARP positive nuclei fraction [14]: 123%
cleaved PARP positive nuclei fraction [15]: 115%
cleaved PARP positive nuclei fraction [16]: 62.6%
cleaved PARP positive nuclei fraction [17]: 108%
cleaved PARP positive nuclei fraction [18]: 204%
cleaved PARP positive nuclei fraction [19]: 55.5%

Cn1sc(=O)n(Cc2ccccc2)c1=O + O=C(O)c1ccc(-c2c[nH]c3ncc(-c4ccccc4)cc23)cc1C1CCCC1 [GSK650394] (first compound 0.4 µM, partner dose 0.16 µM)
cleaved PARP positive nuclei fraction [1]: 78.3%
cleaved PARP positive nuclei fraction [2]: 88.2%
cleaved PARP positive nuclei fraction [3]: 45.2%
cleaved PARP positive nuclei fraction [4]: 135%
cleaved PARP positive nuclei fraction [5]: 84.8%
cleaved PARP positive nuclei fraction [6]: 145%
cleaved PARP positive nuclei fraction [7]: 112%
cleaved PARP positive nuclei fraction [8]: 193%
cleaved PARP positive nuclei fraction [9]: 193%
cleaved PARP positive nuclei fraction [10]: 109%
cleaved PARP positive nuclei fraction [11]: 128%
cleaved PARP positive nuclei fraction [12]: 237%
cleaved PARP positive nuclei fraction [13]: 126%
cleaved PARP positive nuclei fraction [14]: 91.3%
cleaved PARP positive nuclei fraction [15]: 22.5%
cleaved PARP positive nuclei fraction [16]: 104%
cleaved PARP positive nuclei fraction [17]: 60.7%
cleaved PARP positive nuclei fraction [18]: 168%
cleaved PARP positive nuclei fraction [19]: 95%

CC(=O)O[C@@]12CO[C@@H]1C[C@H](O)[C@@]1(C)C(=O)[C@H](O)C3=C(C)[C@@H](OC(=O)[C@H](O)[C@@H](NC(=O)OC(C)(C)C)c4ccccc4)C[C@@](O)([C@@H](OC(=O)c4ccccc4)[C@H]21)C3(C)C [Docetaxel] + Cn1cncc1[C@@](N)(c1ccc(Cl)cc1)c1ccc2c(c1)c(-c1cccc(Cl)c1)cc(=O)n2C [tipifarnib] (first compound 0.0001 µM, partner dose 0.01 µM)
cleaved PARP positive nuclei fraction [1]: 346%
cleaved PARP positive nuclei fraction [2]: 226%
cleaved PARP positive nuclei fraction [3]: 9650%
cleaved PARP positive nuclei fraction [4]: 12900%
cleaved PARP positive nuclei fraction [5]: 444%
cleaved PARP positive nuclei fraction [6]: 680%
cleaved PARP positive nuclei fraction [7]: 54.6%
cleaved PARP positive nuclei fraction [8]: 123%
cleaved PARP positive nuclei fraction [9]: 481%
cleaved PARP positive nuclei fraction [10]: 116%
cleaved PARP positive nuclei fraction [11]: 593%
cleaved PARP positive nuclei fraction [12]: 231%
cleaved PARP positive nuclei fraction [13]: 501%
cleaved PARP positive nuclei fraction [14]: 1040%
cleaved PARP positive nuclei fraction [15]: 249%
cleaved PARP positive nuclei fraction [16]: 177%
cleaved PARP positive nuclei fraction [17]: 196%
cleaved PARP positive nuclei fraction [18]: 364%
cleaved PARP positive nuclei fraction [19]: 107%
